# Reference: the supplement of paper PMC12823440, “Inhibitors supercharge kinase turnover through native proteolytic circuits” (Nature, 2025)
# The chains behind the UniProt entries cited, without tags or fusion partners.
# UniProt Q9NYA1, whole entry: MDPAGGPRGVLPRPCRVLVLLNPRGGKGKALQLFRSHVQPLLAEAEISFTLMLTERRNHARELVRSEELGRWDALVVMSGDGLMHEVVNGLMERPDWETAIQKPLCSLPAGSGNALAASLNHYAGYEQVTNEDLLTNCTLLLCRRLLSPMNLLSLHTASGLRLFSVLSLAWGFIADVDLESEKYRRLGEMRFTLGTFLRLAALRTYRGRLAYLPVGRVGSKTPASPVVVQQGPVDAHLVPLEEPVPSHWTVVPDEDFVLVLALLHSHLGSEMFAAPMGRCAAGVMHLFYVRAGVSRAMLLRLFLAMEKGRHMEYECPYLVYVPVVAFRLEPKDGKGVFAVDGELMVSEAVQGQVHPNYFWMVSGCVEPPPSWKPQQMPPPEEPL
# Structures can show the parent of a compound that is named as a salt. The list shows a part of the results. Hit calls seldom repeat between salt and free forms of one compound.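 Kinases, fused to nanoluciferase, were expressed in K562 cells; luminescence was measured every 4 h from 2 to 18 h as percent of control (DMSO = 100%, positive control = 0%). A time point is decreased if signal falls significantly (2 sigma). Hits were called by the authors by a rule that is not shown; the count of time points alone does not decide it.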
# Target: SPHK1 (UniProt Q9NYA1)
# Experiment: number of time points (of 5) at which kinase-Nluc abundance scored as decreased, DMSO-normalised (count); higher = more persistent destabilization
# Details: K562; 2-18 h
row,Structure (SMILES),number of time points
1,Cn1cc(-c2cc(Oc3cc(F)c(NC(=O)C4(C(=O)Nc5ccccc5)CC4)cc3F)ccn2)cn1 (2.5 µM),0
2,Nc1[nH]nc2nc(-c3ccc(NS(=O)(=O)c4cc(Cl)ccc4Cl)cc3)cnc12 (10 µM),0
3,Cc1cccc(/C=N/Nc2cc(N3CCOCC3)n3nc(-c4ccncc4)cc3n2)c1 (10 µM),1
4,CC(C)n1ncnc1-c1cn2c(n1)-c1ccc(O[C@@H](C)C(N)=O)cc1OCC2 (10 µM),0
5,COC(=O)[C@H](CCSC)NC(=O)c1ccc(NC[C@@H](N)CS)cc1-c1ccccc1 [FTI-277 (hydrochloride)] (10 µM),0
6,O=C(Nc1cccc(-c2nc(-c3ccc(NC(=O)c4cccnc4)cc3Cl)no2)c1)Nc1ccc(NC(=O)C2CC2)c(C(F)(F)F)c1 (2.5 µM),0
7,CN1CCN(c2cc(-c3ccncc3)c(-c3ccc4ccccc4c3)nn2)CC1 (10 µM),0
8,CNC(=O)c1ccc2c(c1)ncn2-c1ccc(CC(=O)OC(C)(C)C)cc1 (10 µM),0
9,O=C(O)[C@H]1O[C@@H](Oc2cc3oc(-c4ccc(O)cc4)cc(=O)c3c(O)c2O)[C@H](O)[C@@H](O)[C@@H]1O [Scutellarin] (10 µM),0
10,Cc1nn(C)cc1-c1nc2c(N3CCN(Cc4ccc(Cl)cc4)CC3)c(Cl)cnc2[nH]1 (10 µM),0
11,Cc1cc(CSc2ccccc2C(=O)NCCNc2ccc(C(F)(F)F)cc2[N+](=O)[O-])on1 (10 µM),0
12,NC(=O)c1cnc(-c2ccc(C3(N)CCC3)cc2)c(-c2ccccc2)c1 (10 µM),0
13,CCCCCC(=O)N[C@@H](Cc1ccc(O)cc1)C(=O)OC (10 µM),0
14,CNC(=O)c1ccc2c(C(=Nc3cccc(CN(C)C)c3)c3ccccc3)c(O)[nH]c2c1 [MEK inhibitor] (10 µM),0
15,COc1cc2ncnc(Nc3cccc(I)c3)c2cc1OC (2.5 µM),0
16,COc1c(O)cc2oc(-c3ccc(O)cc3)cc(=O)c2c1O [Hispidulin] (10 µM),0
17,CC(C)=CC[C@@H](O)C1=CC(=O)c2c(O)ccc(O)c2C1=O [Shikonin] (10 µM),0
18,N[C@@H]1CCCN(c2c(/C=C3\SC(=O)NC3=O)cccc2-c2ccccc2)C1 (10 µM),0
19,NC(=O)c1ccc(N(C(N)=O)c2c(F)cccc2F)nc1-c1ccc(F)cc1F (10 µM),0

# Reformatted tab-delimited: 10 of the compounds above.
row	Structure (SMILES)	number of time points
6	O=C(Nc1cccc(-c2nc(-c3ccc(NC(=O)c4cccnc4)cc3Cl)no2)c1)Nc1ccc(NC(=O)C2CC2)c(C(F)(F)F)c1 (2.5 µM)	0
7	CN1CCN(c2cc(-c3ccncc3)c(-c3ccc4ccccc4c3)nn2)CC1 (10 µM)	0
9	O=C(O)[C@H]1O[C@@H](Oc2cc3oc(-c4ccc(O)cc4)cc(=O)c3c(O)c2O)[C@H](O)[C@@H](O)[C@@H]1O [Scutellarin] (10 µM)	0
10	Cc1nn(C)cc1-c1nc2c(N3CCN(Cc4ccc(Cl)cc4)CC3)c(Cl)cnc2[nH]1 (10 µM)	0
11	Cc1cc(CSc2ccccc2C(=O)NCCNc2ccc(C(F)(F)F)cc2[N+](=O)[O-])on1 (10 µM)	0
12	NC(=O)c1cnc(-c2ccc(C3(N)CCC3)cc2)c(-c2ccccc2)c1 (10 µM)	0
13	CCCCCC(=O)N[C@@H](Cc1ccc(O)cc1)C(=O)OC (10 µM)	0
14	CNC(=O)c1ccc2c(C(=Nc3cccc(CN(C)C)c3)c3ccccc3)c(O)[nH]c2c1 [MEK inhibitor] (10 µM)	0
16	COc1c(O)cc2oc(-c3ccc(O)cc3)cc(=O)c2c1O [Hispidulin] (10 µM)	0
19	NC(=O)c1ccc(N(C(N)=O)c2c(F)cccc2F)nc1-c1ccc(F)cc1F (10 µM)	0

# Next part.

row,Structure (SMILES),number of time points
1,NC1(C(=O)NCCCn2cc(-c3ccc(OC(F)(F)F)cc3)c3cc(CN4CCN(Cc5c(Cl)cccc5Cl)CC4)ccc32)CCNCC1 (2.5 µM),0
2,Cc1cc(O)c2c(c1)C(=O)c1cccc(O)c1C2=O [Chrysophanol] (2 µM),0
3,COc1cc2nccc(Oc3ccc(NC(=O)c4cn(C(C)C)c(=O)n(-c5ccc(F)cc5)c4=O)cc3F)c2cc1OC (0.5 µM),0
4,O=C(Nc1cccnc1)c1cc(-c2ccnc(F)c2)ccc1OCc1ccccc1 (10 µM),0
5,NC[C@@](O)(c1ccc(Cl)cc1)c1ccc(-c2cn[nH]c2)cc1 (10 µM),0
6,O=C1NC(=O)/C(=C\c2c[nH]c(=O)c(-c3ccc(N4CCNCC4)nc3)c2)S1 [Protein kinase inhibitors 1 hydrochloride] (10 µM),0
7,C[C@@H](Nc1ncnc2[nH]c(-c3ccc(O)cc3)cc12)c1ccccc1 (2.5 µM),0
8,Cc1ccc(C(=O)NC2CC2)cc1-n1ncc(C(=O)c2cccc(C#N)c2)c1N [Acumapimod] (10 µM),0
9,C[C@H]1O[C@@H](O[C@H]2CC[C@@]3(C)[C@@H](CC[C@]4(C)[C@@H]3C=C[C@]35OC[C@@]6(CCC(C)(C)C[C@H]63)[C@H](O)C[C@]54C)[C@]2(C)CO)[C@H](O)[C@@H](O[C@@H]2O[C@H](CO)[C@@H](O)[C@H](O)[C@H]2O)[C@H]1O [Saikosaponin D] (2.5 µM),0
10,N#Cc1ccc(-c2cnc3[nH]cc(NC(=O)c4cccnc4)c3c2)cc1 (10 µM),0
11,CCCCCc1ccc(/C=C/[C@H](O)[C@@H](CO)NC)cc1 [SK1-I (hydrochloride)] (10 µM),0
12,COc1ccc2c3n(c(=NC(=O)c4cccnc4)nc2c1OC)CCN3 (2 µM),0
13,CN1CCN(c2ccc(Nc3ncc4cc(C#N)c(=O)n(C5CCCC5)c4n3)cc2)CC1 (10 µM),0
14,COc1ccc(S(=O)(=O)Nc2cc(-c3c(O)ccc4ccccc34)c(O)c3ccccc23)cc1 (10 µM),0
15,CC(C)(C)Cc1[nH]nc2c1[C@@](C)(c1ccccc1)C1=C(CC(C)(C)CC1=O)N2 (10 µM),0
16,Cn1c2cc([S+](C)[O-])sc2c2cnn(Cc3cccc(N)c3)c(=O)c21 (stereo not drawn) (2.5 µM),0
17,Nc1ncc(-c2ccnc(Nc3ccncc3)n2)c(CC2CC2)n1 (10 µM),0
18,O=C(NCCN1CCOCC1)Nc1nc2ccc(Sc3nnc4ccc(-c5ccc(F)cc5)nn34)cc2s1 (10 µM),0
19,CC(C)Oc1ccc(F)c(-c2cnc(N)c(C(=O)Nc3cnccc3N3CCC[C@@H](C(=O)O)C3)n2)c1 (2 µM),0
